In the supplement of paper PMC4604168 (melanoma cell lines):
The list shows a part of the results. Many values rest on one well or one pass, so single values are uncertain.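 Imaging used 1,536-well plates; nuclei positive for cleaved PARP by antibody were divided by total DNA-stained nuclei to yield the apoptosis fraction. Doses for screening kept most cells viable, and cell lines differ markedly in resting and induced cleaved-PARP levels.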

system: MEL-HO; experiment: cleaved PARP positive nuclei fraction relative to DMSO control; melanoma cells; higher = more apoptosis; conditions: library dose: low library concentration; 72 h

Structure (SMILES) | cleaved PARP positive nuclei fraction
CC[C@]1(O)C[C@H]2CN(CCc3c([nH]c4ccccc34)[C@@](C(=O)OC)(c3cc4c(cc3OC)N(C=O)[C@H]3[C@@](O)(C(=O)OC)[C@H](OC(C)=O)[C@]5(CC)C=CCN6CC[C@]43[C@@H]65)C2)C1 [vincristine] + CC(=O)O[C@@]12CO[C@@H]1C[C@H](O)[C@@]1(C)C(=O)[C@H](O)C3=C(C)[C@@H](OC(=O)[C@H](O)[C@@H](NC(=O)OC(C)(C)C)c4ccccc4)C[C@@](O)([C@@H](OC(=O)c4ccccc4)[C@H]21)C3(C)C [Docetaxel] (first compound 0.0001 µM, partner dose 0.0001 µM) | 118%
CCCCCCCCCCCCCCCCCCOP(=O)([O-])OC1CC[N+](C)(C)CC1 [Perifosine] + CO[C@H]1C[C@@H]2CC[C@@H](C)[C@@](O)(O2)C(=O)C(=O)N2CCCC[C@H]2C(=O)O[C@H]([C@H](C)C[C@@H]2CC[C@@H](OCCO)[C@H](OC)C2)CC(=O)[C@H](C)/C=C(\C)[C@@H](O)[C@@H](OC)C(=O)[C@H](C)C[C@H](C)/C=C/C=C/C=C/1C [everolimus] (first compound 0.4 µM, partner dose 0.02 µM) | 67.7%
Cc1ccc(Nc2nccc(N(C)c3ccc4c(C)n(C)nc4c3)n2)cc1S(N)(=O)=O [Pazopanib] + CS(=O)(=O)CCNCc1ccc(-c2ccc3ncnc(Nc4ccc(OCc5cccc(F)c5)c(Cl)c4)c3c2)o1 [lapatinib] (first compound 0.4 µM, partner dose 0.8 µM) | 62.8%
N#CC[C@H](C1CCCC1)n1cc(-c2ncnc3[nH]ccc23)cn1 [ruxolitinib] + C[C@]1(c2nc3c(C(N)=O)cccc3[nH]2)CCCN1 [Veliparib] (first compound 1 µM, partner dose 1.4 µM) | 240%
CC[C@]1(O)C[C@H]2CN(CCc3c([nH]c4ccccc34)[C@@](C(=O)OC)(c3cc4c(cc3OC)N(C=O)[C@H]3[C@@](O)(C(=O)OC)[C@H](OC(C)=O)[C@]5(CC)C=CCN6CC[C@]43[C@@H]65)C2)C1 [vincristine] + Cn1cnc2c(F)c(Nc3ccc(Br)cc3Cl)c(C(=O)NOCCO)cc21 [selumetinib] (first compound 0.0001 µM, partner dose 0.015 µM) | 107%
CC[C@]1(O)C[C@H]2CN(CCc3c([nH]c4ccccc34)[C@@](C(=O)OC)(c3cc4c(cc3OC)N(C=O)[C@H]3[C@@](O)(C(=O)OC)[C@H](OC(C)=O)[C@]5(CC)C=CCN6CC[C@]43[C@@H]65)C2)C1 [vincristine] + Nc1cccc2c1CN(C1CCC(=O)NC1=O)C2=O [lenalidomide] (first compound 0.0001 µM, partner dose 1 µM) | 40.7%
N#CC[C@H](C1CCCC1)n1cc(-c2ncnc3[nH]ccc23)cn1 [ruxolitinib] + CCN(CC)CCNC(=O)c1c(C)[nH]c(/C=C2\C(=O)Nc3ccc(F)cc32)c1C [sunitinib] (first compound 1 µM, partner dose 0.4 µM) | 80.3%
COc1cc([C@@H]2c3cc4c(cc3[C@@H](O[C@@H]3O[C@@H]5CO[C@@H](C)O[C@H]5[C@H](O)[C@H]3O)[C@H]3COC(=O)[C@H]23)OCO4)cc(OC)c1O [etoposide] + O=C(/C=C/c1cccnc1)NCCCCC1CCN(C(=O)c2ccccc2)CC1 [FK866] (first compound 0.02 µM, partner dose 0.01 µM) | 118%
O=c1[nH]nc(Sc2ncc([N+](=O)[O-])s2)n1-c1ccc2c(c1)OCCO2 + CC(=O)O[C@@]12CO[C@@H]1C[C@H](O)[C@@]1(C)C(=O)[C@H](O)C3=C(C)[C@@H](OC(=O)[C@H](O)[C@@H](NC(=O)OC(C)(C)C)c4ccccc4)C[C@@](O)([C@@H](OC(=O)c4ccccc4)[C@H]21)C3(C)C [Docetaxel] (first compound 0.2 µM, partner dose 0.0001 µM) | 127%
N#CC[C@H](C1CCCC1)n1cc(-c2ncnc3[nH]ccc23)cn1 [ruxolitinib] + NC(=O)c1ccc(N(C(N)=O)c2c(F)cccc2F)nc1-c1ccc(F)cc1F [VX702] (first compound 1 µM, partner dose 0.4 µM) | 146%
